Results deposited as PubChem BioAssay AID1259308 (NCATS, 2017).
The deposit covers about 59,000 reagents; this is an unselected part. About 1,510 of all reagents (2.6%) were called active. 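Calls use total luciferase alone and ignore viability, so some active siRNAs may act by altering cell number.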 The numbers tell different reagents against one gene apart. Not all columns of the deposit are shown.

Aim: 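Knock-downs that increase output of a recombinant reporter protein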 (primary screen)
System: human HEK293 embryonic kidney cells stably expressing firefly luciferase (HEK-CMV-Luc2-Hygro)
Knock-down reagent: single siRNA against human genes, 0.8 pmol siRNA per well
Duration: 72 h
Measurement: 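Luciferase light (ONE-Glo) measured on one replicate plate set and viability (CellTiter-Glo) on the other, scaled to a negative control siRNA, with robust z-scores and luciferase per cell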
Reading the numbers: total luciferase, z-score: higher = more reporter protein produced
Call rule: 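Active when the median/MAD z-score for overall luciferase is greater than 3; a gene was taken forward for validation with new siRNAs if at least two of its three siRNAs passed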
Calls: active = raised luciferase; inactive = no rise

no.	Gene	siRNA no.	total luciferase, z-score	Outcome
1	HMGN2P18 (GeneID 648822)	1	-0.126	inactive
2	HMGN2P18 (GeneID 648822)	2	2.36	inactive
3	HMGN2P18 (GeneID 648822)	3	0.422	inactive
4	RPS2P8 (GeneID 440589)	1	-1.44	inactive
5	RPS2P8 (GeneID 440589)	2	-1.01	inactive
6	RPS2P8 (GeneID 440589)	3	2.76	inactive
7	SMARCD3 (GeneID 6604)	1	2.13	inactive
8	SMARCD3 (GeneID 6604)	2	-0.124	inactive
9	SMARCD3 (GeneID 6604)	3	0.533	inactive
10	PIEZO1 (GeneID 9780)	1	0.221	inactive
11	PIEZO1 (GeneID 9780)	2	-1.87	inactive
12	PIEZO1 (GeneID 9780)	3	-1.45	inactive
13	SEC22C (GeneID 9117)	1	0.377	inactive
14	SEC22C (GeneID 9117)	2	1.2	inactive
15	SEC22C (GeneID 9117)	3	1.96	inactive
16	PFKP (GeneID 5214)	1	-0.486	inactive
17	PFKP (GeneID 5214)	2	-0.0623	inactive
18	PFKP (GeneID 5214)	3	0.61	inactive
19	TMEM130 (GeneID 222865)	1	1.45	inactive
20	TMEM130 (GeneID 222865)	2	-0.425	inactive
21	TMEM130 (GeneID 222865)	3	-0.983	inactive
22	PPM1K (GeneID 152926)	1	-0.279	inactive
23	PPM1K (GeneID 152926)	2	-0.638	inactive
24	PPM1K (GeneID 152926)	3	-1.18	inactive
25	KIFBP (GeneID 26128)	1	0.146	inactive
26	KIFBP (GeneID 26128)	2	0.987	inactive
27	KIFBP (GeneID 26128)	3	-1.18	inactive
28	SPATA31C1 (GeneID 441452)	1	-0.328	inactive
29	SPATA31C1 (GeneID 441452)	2	0.251	inactive
30	SPATA31C1 (GeneID 441452)	3	0.431	inactive
31	ASAP3 (GeneID 55616)	1	-0.0146	inactive
32	ASAP3 (GeneID 55616)	2	0.565	inactive
33	ASAP3 (GeneID 55616)	3	0.243	inactive
34	TRPM6 (GeneID 140803)	1	1.53	inactive
35	TRPM6 (GeneID 140803)	2	-0.49	inactive
36	TRPM6 (GeneID 140803)	3	-1.09	inactive
37	ZNF229 (GeneID 7772)	1	-1.08	inactive
38	ZNF229 (GeneID 7772)	2	-0.211	inactive
39	ZNF229 (GeneID 7772)	3	-0.123	inactive
